Some of the results follow.
How the values were obtained:
Experiment in all cases: log2 fold change, soluble protein after heating vs DMSO (PISA); higher = thermal stabilisation; K562 cells, 10 uM, 30 min; active = over 0.2 and 3.5 SD of the protein, either way, in both replicates (recomputed)
[1] = compound: Cc1ccc(NC(=O)c2ccc(CN3CC[C@H](N(C)C)C3)c(C(F)(F)F)c2)cc1Nc1nccc(-c2cncnc2)n1 [bafetinib]
Summary of the method: (§1)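 For each measurement, 10 μM compound was applied for 30 min to K562 cells at 2×10^6 cells/mL. Aliquots were heated for 3 min across 48°C-58°C, pooled, and extracted in PBS with 0.5% NP-40 at 4°C; the supernatant after 21,000xg for 90 min was soluble protein. This was quantified by TMTpro 16plex LC-MS/MS with channel sums equalised, and thermal stability was reported relative to control samples from duplicates, on a log2 fold-change scale.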

Protein sequences, listed by entry. Tags and fused reporters are not part of them. Lines headed by an entry give the natural chain unless they say otherwise; changes in a name come on top.
UniProt P78406: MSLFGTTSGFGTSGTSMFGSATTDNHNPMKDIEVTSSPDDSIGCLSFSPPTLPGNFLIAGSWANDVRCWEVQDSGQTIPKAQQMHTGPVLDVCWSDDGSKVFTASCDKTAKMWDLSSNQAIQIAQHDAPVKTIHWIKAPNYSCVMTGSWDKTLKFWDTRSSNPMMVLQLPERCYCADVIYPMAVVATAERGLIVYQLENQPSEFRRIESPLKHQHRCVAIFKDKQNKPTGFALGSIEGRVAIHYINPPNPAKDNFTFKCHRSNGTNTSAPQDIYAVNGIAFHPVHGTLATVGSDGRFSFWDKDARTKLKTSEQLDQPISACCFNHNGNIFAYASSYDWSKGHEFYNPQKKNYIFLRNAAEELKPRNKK
UniProt Q99638: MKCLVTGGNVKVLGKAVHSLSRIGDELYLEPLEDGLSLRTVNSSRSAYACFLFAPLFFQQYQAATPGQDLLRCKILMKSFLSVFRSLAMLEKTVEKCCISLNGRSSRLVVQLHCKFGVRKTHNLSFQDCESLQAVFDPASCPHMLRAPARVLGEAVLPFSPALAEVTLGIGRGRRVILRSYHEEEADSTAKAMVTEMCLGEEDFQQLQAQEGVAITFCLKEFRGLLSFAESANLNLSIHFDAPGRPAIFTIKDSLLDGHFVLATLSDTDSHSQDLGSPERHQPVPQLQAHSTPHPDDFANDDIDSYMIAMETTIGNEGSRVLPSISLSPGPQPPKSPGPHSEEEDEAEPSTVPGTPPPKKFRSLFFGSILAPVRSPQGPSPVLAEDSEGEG
UniProt P51149, whole entry, looked up: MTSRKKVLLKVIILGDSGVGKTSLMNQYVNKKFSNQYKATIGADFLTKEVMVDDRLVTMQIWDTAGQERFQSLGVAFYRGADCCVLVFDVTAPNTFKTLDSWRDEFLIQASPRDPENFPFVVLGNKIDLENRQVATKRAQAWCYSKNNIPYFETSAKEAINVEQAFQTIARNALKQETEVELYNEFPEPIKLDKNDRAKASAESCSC
UniProt P52306: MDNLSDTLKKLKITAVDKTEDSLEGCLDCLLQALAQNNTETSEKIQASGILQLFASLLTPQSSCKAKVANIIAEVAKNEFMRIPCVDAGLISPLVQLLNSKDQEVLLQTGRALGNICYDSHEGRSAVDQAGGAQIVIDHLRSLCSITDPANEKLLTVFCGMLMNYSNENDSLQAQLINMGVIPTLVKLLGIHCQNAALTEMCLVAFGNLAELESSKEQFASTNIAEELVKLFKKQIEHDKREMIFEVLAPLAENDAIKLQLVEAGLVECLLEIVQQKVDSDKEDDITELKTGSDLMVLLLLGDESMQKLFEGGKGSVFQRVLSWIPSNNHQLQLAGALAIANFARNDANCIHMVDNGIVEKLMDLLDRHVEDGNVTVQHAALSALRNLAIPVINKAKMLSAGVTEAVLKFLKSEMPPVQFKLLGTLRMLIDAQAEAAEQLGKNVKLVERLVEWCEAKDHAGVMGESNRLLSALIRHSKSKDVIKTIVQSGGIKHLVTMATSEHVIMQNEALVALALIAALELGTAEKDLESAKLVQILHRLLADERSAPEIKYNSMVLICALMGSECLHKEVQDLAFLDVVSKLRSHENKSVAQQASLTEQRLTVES
UniProt Q9UL25: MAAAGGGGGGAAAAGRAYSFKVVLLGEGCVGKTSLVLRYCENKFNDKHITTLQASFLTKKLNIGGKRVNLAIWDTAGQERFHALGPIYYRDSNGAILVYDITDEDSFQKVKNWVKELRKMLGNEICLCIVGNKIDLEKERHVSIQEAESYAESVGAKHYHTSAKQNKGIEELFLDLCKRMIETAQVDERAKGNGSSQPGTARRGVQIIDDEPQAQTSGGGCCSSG
UniProt Q9UL26: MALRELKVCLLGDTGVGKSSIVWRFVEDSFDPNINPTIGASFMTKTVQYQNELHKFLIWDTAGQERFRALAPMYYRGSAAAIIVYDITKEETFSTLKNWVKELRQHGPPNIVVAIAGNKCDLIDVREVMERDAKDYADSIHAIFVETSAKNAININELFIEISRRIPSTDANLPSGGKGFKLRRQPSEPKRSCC
UniProt Q9NX57: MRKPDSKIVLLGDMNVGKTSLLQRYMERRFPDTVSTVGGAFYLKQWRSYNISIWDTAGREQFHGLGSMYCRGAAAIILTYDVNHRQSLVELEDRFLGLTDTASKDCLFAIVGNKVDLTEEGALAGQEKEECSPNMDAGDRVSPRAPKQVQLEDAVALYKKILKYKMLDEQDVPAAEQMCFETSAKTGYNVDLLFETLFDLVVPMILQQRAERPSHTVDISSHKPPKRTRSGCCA
UniProt Q96S59, whole entry, looked up: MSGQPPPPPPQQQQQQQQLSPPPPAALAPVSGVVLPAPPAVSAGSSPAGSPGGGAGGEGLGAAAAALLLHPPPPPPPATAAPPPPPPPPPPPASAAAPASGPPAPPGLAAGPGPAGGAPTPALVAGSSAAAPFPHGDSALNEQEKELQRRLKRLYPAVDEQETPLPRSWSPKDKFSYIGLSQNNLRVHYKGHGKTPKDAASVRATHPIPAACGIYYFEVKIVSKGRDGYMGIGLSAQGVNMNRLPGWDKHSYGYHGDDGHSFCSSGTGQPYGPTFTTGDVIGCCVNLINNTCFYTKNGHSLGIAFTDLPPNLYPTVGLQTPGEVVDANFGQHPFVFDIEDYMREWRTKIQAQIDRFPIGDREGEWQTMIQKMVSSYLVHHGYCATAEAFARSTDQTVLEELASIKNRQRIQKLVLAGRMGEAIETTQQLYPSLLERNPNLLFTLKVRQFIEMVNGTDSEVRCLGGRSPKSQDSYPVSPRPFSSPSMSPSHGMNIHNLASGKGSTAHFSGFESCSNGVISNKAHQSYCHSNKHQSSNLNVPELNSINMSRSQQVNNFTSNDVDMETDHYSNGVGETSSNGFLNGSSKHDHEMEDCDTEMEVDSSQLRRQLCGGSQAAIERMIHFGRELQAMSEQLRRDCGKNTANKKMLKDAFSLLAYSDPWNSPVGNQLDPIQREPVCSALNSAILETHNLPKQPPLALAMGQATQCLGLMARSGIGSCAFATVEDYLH
UniProt Q9UJ41, whole entry, looked up: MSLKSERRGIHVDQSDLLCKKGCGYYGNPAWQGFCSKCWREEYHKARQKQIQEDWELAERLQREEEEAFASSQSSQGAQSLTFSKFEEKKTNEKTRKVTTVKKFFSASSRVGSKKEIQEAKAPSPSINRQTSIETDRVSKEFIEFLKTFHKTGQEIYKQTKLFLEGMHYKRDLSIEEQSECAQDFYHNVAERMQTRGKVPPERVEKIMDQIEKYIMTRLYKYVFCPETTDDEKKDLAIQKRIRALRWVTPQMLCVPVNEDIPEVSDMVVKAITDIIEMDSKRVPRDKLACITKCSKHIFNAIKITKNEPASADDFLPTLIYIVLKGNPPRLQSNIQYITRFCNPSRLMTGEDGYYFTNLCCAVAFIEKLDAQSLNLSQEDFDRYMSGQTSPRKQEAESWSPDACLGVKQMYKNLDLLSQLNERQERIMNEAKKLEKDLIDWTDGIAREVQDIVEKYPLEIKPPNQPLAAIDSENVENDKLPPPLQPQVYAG
UniProt Q3YEC7: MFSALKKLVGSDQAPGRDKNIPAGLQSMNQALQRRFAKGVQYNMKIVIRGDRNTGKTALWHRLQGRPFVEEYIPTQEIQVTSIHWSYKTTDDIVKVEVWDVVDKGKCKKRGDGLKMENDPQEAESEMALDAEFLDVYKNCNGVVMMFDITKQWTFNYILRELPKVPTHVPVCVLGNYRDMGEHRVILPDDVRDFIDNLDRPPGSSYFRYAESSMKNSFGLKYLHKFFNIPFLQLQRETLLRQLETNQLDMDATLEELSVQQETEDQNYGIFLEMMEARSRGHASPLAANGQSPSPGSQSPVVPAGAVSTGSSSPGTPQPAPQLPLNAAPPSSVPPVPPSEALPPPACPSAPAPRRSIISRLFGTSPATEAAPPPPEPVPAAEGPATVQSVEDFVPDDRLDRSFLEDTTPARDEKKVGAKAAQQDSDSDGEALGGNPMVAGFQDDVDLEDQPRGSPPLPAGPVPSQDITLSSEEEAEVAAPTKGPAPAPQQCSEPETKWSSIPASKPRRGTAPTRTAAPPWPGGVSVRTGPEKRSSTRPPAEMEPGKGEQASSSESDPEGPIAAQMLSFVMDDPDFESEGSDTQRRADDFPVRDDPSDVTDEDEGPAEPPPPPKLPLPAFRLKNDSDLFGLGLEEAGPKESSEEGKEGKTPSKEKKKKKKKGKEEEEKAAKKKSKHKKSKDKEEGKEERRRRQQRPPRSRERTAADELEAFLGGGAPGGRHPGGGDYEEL
UniProt Q15291, whole entry, looked up: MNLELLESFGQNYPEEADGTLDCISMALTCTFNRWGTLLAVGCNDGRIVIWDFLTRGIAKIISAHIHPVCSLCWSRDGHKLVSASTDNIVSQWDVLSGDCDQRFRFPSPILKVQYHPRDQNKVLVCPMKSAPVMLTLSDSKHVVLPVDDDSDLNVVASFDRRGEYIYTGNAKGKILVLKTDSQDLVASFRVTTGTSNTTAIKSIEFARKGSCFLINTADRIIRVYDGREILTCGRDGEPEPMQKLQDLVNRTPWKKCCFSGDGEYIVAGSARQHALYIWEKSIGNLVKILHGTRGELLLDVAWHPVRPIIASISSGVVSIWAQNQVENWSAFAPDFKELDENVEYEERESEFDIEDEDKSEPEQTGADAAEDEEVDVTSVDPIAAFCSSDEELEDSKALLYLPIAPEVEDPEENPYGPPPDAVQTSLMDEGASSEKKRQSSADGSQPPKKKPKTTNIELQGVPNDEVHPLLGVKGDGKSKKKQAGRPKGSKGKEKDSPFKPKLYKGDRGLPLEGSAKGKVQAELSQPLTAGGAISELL
UniProt Q5T8P6: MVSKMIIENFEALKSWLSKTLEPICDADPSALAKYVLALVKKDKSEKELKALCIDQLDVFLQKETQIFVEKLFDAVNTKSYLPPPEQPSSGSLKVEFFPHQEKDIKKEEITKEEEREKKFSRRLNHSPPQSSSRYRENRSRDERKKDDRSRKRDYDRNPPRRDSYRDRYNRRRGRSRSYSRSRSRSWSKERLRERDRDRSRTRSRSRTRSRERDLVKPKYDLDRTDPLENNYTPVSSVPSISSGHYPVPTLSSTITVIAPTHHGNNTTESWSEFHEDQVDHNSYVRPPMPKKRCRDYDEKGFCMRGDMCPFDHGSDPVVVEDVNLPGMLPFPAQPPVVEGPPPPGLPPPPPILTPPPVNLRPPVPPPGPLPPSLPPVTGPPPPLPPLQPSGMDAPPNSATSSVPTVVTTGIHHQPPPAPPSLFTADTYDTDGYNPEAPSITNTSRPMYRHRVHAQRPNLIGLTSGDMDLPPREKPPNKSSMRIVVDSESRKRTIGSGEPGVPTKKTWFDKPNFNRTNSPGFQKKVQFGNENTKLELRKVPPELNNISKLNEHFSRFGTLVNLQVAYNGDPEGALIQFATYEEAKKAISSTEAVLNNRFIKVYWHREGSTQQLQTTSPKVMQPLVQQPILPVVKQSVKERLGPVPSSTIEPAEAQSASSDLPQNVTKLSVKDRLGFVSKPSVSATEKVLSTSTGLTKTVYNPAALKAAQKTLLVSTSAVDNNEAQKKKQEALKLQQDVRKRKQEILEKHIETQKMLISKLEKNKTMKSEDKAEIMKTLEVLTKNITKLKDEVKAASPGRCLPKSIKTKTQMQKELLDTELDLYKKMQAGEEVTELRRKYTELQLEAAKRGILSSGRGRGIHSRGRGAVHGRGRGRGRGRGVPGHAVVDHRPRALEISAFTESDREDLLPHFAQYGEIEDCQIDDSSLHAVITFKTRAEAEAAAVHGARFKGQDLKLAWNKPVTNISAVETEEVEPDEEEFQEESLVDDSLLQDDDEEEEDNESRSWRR
UniProt Q7Z6M1: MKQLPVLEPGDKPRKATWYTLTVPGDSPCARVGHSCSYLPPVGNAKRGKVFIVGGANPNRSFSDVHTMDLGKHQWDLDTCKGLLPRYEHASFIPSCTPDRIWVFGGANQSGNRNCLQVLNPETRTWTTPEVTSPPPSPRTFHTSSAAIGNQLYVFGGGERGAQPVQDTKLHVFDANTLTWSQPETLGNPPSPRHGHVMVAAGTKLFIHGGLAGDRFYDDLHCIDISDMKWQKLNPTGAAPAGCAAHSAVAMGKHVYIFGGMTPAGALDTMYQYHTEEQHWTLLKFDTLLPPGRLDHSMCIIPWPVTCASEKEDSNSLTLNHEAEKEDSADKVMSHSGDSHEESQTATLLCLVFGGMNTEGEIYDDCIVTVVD
UniProt Q8TBN0: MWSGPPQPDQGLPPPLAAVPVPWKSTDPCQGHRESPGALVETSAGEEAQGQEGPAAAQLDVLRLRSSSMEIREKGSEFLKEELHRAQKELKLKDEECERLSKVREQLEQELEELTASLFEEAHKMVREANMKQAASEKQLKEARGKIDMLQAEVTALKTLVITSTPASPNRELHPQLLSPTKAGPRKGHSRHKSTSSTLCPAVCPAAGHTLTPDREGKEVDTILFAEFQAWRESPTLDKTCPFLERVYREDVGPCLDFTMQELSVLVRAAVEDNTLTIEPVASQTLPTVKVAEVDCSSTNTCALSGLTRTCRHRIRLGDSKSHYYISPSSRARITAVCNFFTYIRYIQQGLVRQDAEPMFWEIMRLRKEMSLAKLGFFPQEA

[2] = compound: Cc1cccc(CC(=O)N2CCc3c2ccc(-c2cn(C)c4ncnc(N)c24)c3F)n1
Summary of the method: as §1

[3] = compound: Cc1cn(-c2cc(NC(=O)c3ccc(C)c(Nc4nccc(-c5cccnc5)n4)c3)cc(C(F)(F)F)c2)cn1 [nilotinib]
Summary of the method: as §1

[4] = compound: Cc1nc(Nc2n[nH]c3c2CN(C(=O)N[C@H](CN(C)C)c2ccccc2)C3(C)C)c2sccc2n1
Summary of the method: as §1

[5] = compound: Cc1nc(Nc2ncc(C(=O)Nc3c(C)cccc3Cl)s2)cc(N2CCN(CCO)CC2)n1 [dasatinib]
Summary of the method: as §1

[6] = compound: Cc1ncc(-c2ccnc(Nc3ccc(S(C)(=O)=O)cc3)n2)n1C(C)C
Summary of the method: as §1

[7] = compound: Cn1cc(-c2ccc3c(c2)CCN3C(=O)Cc2cccc(C(F)(F)F)c2)c2c(N)ncnc21
Summary of the method: as §1

[8] = compound: Cn1cc(-c2ccc3nnc(C(F)(F)c4ccc5ncccc5c4)n3n2)cn1
Summary of the method: as §1

[9] = compound: Cn1cncc1[C@@](N)(c1ccc(Cl)cc1)c1ccc2c(c1)c(-c1cccc(Cl)c1)cc(=O)n2C [tipifarnib]
Summary of the method: as §1

[10] = compound: FC(F)(F)c1ccc(/C=C/c2nc(COc3ccc(CCCCn4ccnn4)cc3)co2)cc1 [mubritinib]
Summary of the method: as §1

[11] = compound: NC(=O)Nc1cc(-c2cccc(F)c2)sc1C(=O)N[C@H]1CCCNC1
Summary of the method: as §1

[12] = compound: NC(=O)c1cnc(N[C@@H]2CCCC[C@@H]2N)nc1Nc1cccc(-n2nccn2)c1
Summary of the method: as §1

[13] = compound: NC1(c2ccc(-c3nc4ccn5c(=O)[nH]nc5c4cc3-c3ccccc3)cc2)CCC1
Summary of the method: as §1

[14] = compound: NCC(=O)Nc1ccc(-n2nc(C(F)(F)F)cc2-c2ccc3c(ccc4ccccc43)c2)cc1
Summary of the method: as §1

[15] = compound: Nc1ccccc1NC(=O)c1ccc(CNC(=O)OCc2cccnc2)cc1 [entinostat]
Summary of the method: as §1

[16] = compound: O=C(CCCCCCC(=O)Nc1ccccc1)NO [vorinostat]
Summary of the method: as §1

[17] = compound: O=C(CCCCCCNC(=O)c1cnc(N(c2ccccc2)c2ccccc2Cl)nc1)NO [citarinostat]
Summary of the method: as §1

[18] = compound: O=C(O)c1ccc2c(c1)nc(Nc1cccc(Cl)c1)c1ccncc12 [silmitasertib]
Summary of the method: as §1

[19] = compound: O=C1NC(=O)C(c2cnc3ccccn23)=C1c1cn2c3c(cc(F)cc13)CN(C(=O)N1CCCCC1)CC2
Summary of the method: as §1

[20] = compound: c1cc(OCCN2CCCCC2)cc(-c2n[nH]c3ccc(-c4nnc[nH]4)cc23)c1
Summary of the method: as §1

Measured: log2 fold change

RAE1 (UniProt P78406)
inactive: [1] 0.014 | [2] -0.002 | [3] -0.058 | [4] -0.077 | [5] -0.045 | [6] 0.013 | [7] -0.065 | [8] -0.083 | [9] -0.02 | [10] -0.101 | [11] -0.049 | [12] -0.004 | [13] -0.016 | [14] -0.029 | [15] -0.036 | [16] 0.025 | [17] -0.049 | [18] 0.084 | [19] 0.034 | [20] 0.156

RAD9A (UniProt Q99638)
inactive: [1] -0.027 | [2] -0.076 | [3] 0.037 | [4] 0.007 | [5] 0.029 | [6] 0.011 | [7] 0.014 | [8] -0.039 | [9] -0.021 | [10] 0.012 | [11] -0.047 | [12] 0.003 | [13] -0.044 | [14] 0.048 | [15] -0.007 | [16] 0.144 | [17] 0.019 | [18] -0.021 | [19] -0.092 | [20] -0.007

RAB7A (UniProt P51149)
inactive: [1] -0.071 | [2] -0.03 | [3] 0.013 | [4] -0.006 | [5] 0.046 | [6] -0.017 | [7] 0.011 | [8] 0.001 | [9] 0.02 | [10] 0.008 | [11] -0.002 | [12] -0.009 | [13] -0.029 | [14] 0.016 | [15] -0.026 | [16] -0.016 | [17] 0.015 | [18] -0.019 | [19] -0.009 | [20] 0.004

RAP1GDS1 isoform 5 (UniProt P52306)
inactive: [1] 0.097 | [2] 0.07 | [3] -0.077 | [4] -0.105 | [5] -0.083 | [6] 0.042 | [7] -0.005 | [8] 0.03 | [9] -0.041 | [10] 0.026 | [11] -0.059 | [12] -0.069 | [13] -0.181 | [14] -0.117 | [15] 0.027 | [16] 0.119 | [17] 0.2 | [18] 0.087 | [19] -0.049 | [20] -0.002

RAB21 (UniProt Q9UL25)
inactive: [1] -0.038 | [2] 0.023 | [3] -0.004 | [4] 0.041 | [5] 0.009 | [6] -0.009 | [7] 0.046 | [8] 0.039 | [9] -0.005 | [10] 0.011 | [11] -0.008 | [12] -0.042 | [13] -0.051 | [14] -0.081 | [15] -0.03 | [16] 0.089 | [17] 0.015 | [18] 0 | [19] -0.024 | [20] -0.064

RAB22A (UniProt Q9UL26)
inactive: [1] -0.029 | [2] -0.07 | [3] -0.026 | [4] 0.02 | [5] -0.004 | [6] 0.001 | [7] -0.009 | [8] 0.018 | [9] -0.032 | [10] 0.041 | [11] 0.018 | [12] 0.004 | [13] -0.009 | [14] -0.006 | [15] -0.025 | [16] -0.062 | [17] 0.008 | [18] 0.037 | [19] -0.072 | [20] -0.004

RAB20 (UniProt Q9NX57)
inactive: [1] -0.021 | [2] -0.044 | [3] 0.04 | [4] 0.025 | [5] 0.015 | [6] 0.05 | [7] 0.004 | [8] 0.073 | [9] 0.029 | [10] -0.036 | [11] -0.034 | [12] 0.015 | [13] -0.009 | [14] 0.002 | [15] -0.003 | [16] -0.036 | [17] 0.054 | [18] 0 | [19] 0.059 | [20] -0.088

RANBP9 (UniProt Q96S59)
inactive: [1] -0.011 | [2] -0.003 | [3] 0.002 | [4] -0.003 | [5] -0.016 | [6] 0.013 | [7] -0.061 | [8] -0.061 | [9] 0.03 | [10] 0.014 | [11] -0.004 | [12] 0.009 | [13] -0.081 | [14] -0.021 | [15] 0.009 | [16] 0 | [17] 0.042 | [18] 0.072 | [19] -0.016 | [20] -0.046

RABGEF1 isoform 3 (UniProt Q9UJ41)
inactive: [1] -0.065 | [2] -0.04 | [3] 0.004 | [4] 0.011 | [5] -0.011 | [6] 0.023 | [7] 0.001 | [8] 0.052 | [9] -0.013 | [10] -0.018 | [11] -0.01 | [12] -0.091 | [13] -0.012 | [14] -0.066 | [15] -0.02 | [16] 0.062 | [17] 0.042 | [18] -0.002 | [19] 0.096 | [20] -0.019

RBFOX2 isoform 8 (UniProt O43251)
inactive: [1] -0.028 | [2] 0.143 | [3] -0.017 | [4] -0.127 | [5] -0.096 | [6] 0.243 | [7] -0.086 | [8] 0.124 | [9] -0.122 | [10] 0.05 | [11] 0.035 | [12] 0.074 | [13] -0.04 | [14] -0.06 | [15] 0.138 | [16] -0.04 | [17] 0.049 | [18] 0.222 | [19] 0.032 | [20] -0.073

Reprinted from the listing (2 entries):
RAP1GDS1 isoform 5 (UniProt P52306)
inactive: [1] 0.097 | [2] 0.07 | [3] -0.077 | [4] -0.105 | [5] -0.083 | [6] 0.042 | [7] -0.005 | [8] 0.03 | [9] -0.041 | [10] 0.026 | [11] -0.059 | [12] -0.069 | [13] -0.181 | [14] -0.117 | [15] 0.027 | [16] 0.119 | [17] 0.2 | [18] 0.087 | [19] -0.049 | [20] -0.002

RAB21 (UniProt Q9UL25)
inactive: [1] -0.038 | [2] 0.023 | [3] -0.004 | [4] 0.041 | [5] 0.009 | [6] -0.009 | [7] 0.046 | [8] 0.039 | [9] -0.005 | [10] 0.011 | [11] -0.008 | [12] -0.042 | [13] -0.051 | [14] -0.081 | [15] -0.03 | [16] 0.089 | [17] 0.015 | [18] 0 | [19] -0.024 | [20] -0.064

Next part.

RABL6 (UniProt Q3YEC7)
inactive: [1] -0.025 | [2] -0.05 | [3] -0.018 | [4] 0.015 | [5] 0.015 | [6] 0 | [7] 0.036 | [8] 0.053 | [9] -0.015 | [10] 0.024 | [11] 0.05 | [12] 0.009 | [13] 0.022 | [14] 0.033 | [15] -0.007 | [16] -0.057 | [17] 0.003 | [18] -0.043 | [19] 0.004 | [20] -0.007

RBBP5 (UniProt Q15291)
inactive: [1] -0.024 | [2] -0.019 | [3] -0.022 | [4] -0.002 | [5] 0.017 | [6] 0.011 | [7] -0.03 | [8] -0.013 | [9] 0.024 | [10] -0.034 | [11] 0.074 | [12] 0.005 | [13] 0.03 | [14] 0.014 | [15] -0.042 | [16] -0.035 | [17] 0 | [18] 0.048 | [19] 0.036 | [20] -0.016

RBM26 isoform 2 (UniProt Q5T8P6)
inactive: [1] -0.003 | [2] 0.058 | [3] -0.088 | [4] -0.432 | [5] -0.176 | [6] 0.021 | [7] 0.12 | [8] 0.168 | [9] -0.033 | [10] 0.045 | [11] -0.001 | [12] 0.031 | [13] -0.135 | [14] -0.103 | [15] 0.141 | [16] 0.103 | [17] 0.193 | [18] -0.1 | [19] -0.05 | [20] 0.017

RABEPK (UniProt Q7Z6M1)
inactive: [1] -0.01 | [2] -0.017 | [3] -0.006 | [4] 0.006 | [5] 0.057 | [6] -0.01 | [7] 0.053 | [8] -0.034 | [9] 0.005 | [10] 0 | [11] -0.002 | [12] 0.062 | [13] 0.04 | [14] 0.063 | [15] -0.029 | [16] 0.022 | [17] 0.013 | [18] -0.022 | [19] -0.062 | [20] 0.021

RAB3IL1 (UniProt Q8TBN0)
inactive: [1] -0.025 | [2] 0.034 | [3] -0.016 | [4] 0.012 | [5] -0.054 | [6] -0.015 | [7] -0.007 | [8] 0.002 | [9] -0.051 | [10] 0.017 | [11] 0.041 | [12] -0.011 | [13] -0.025 | [14] -0.046 | [15] -0.019 | [16] -0.032 | [17] 0.035 | [18] 0.053 | [19] -0.038 | [20] 0.008

RAB12, A0A3B3ITT1
inactive: [1] -0.077 | [2] -0.102 | [3] -0.023 | [4] -0.006 | [5] 0.013 | [6] 0.029 | [7] 0.01 | [8] -0.02 | [9] 0.044 | [10] 0.027 | [11] -0.038 | [12] -0.04 | [13] -0.051 | [14] 0.009 | [15] -0.017 | [16] -0.021 | [17] 0.074 | [18] 0.021 | [19] -0.024 | [20] -0.037

Reference: the supplement of paper PMC10849652
